These are yes or no findings as the source states them, for the method shown. Binding seen in cells or lysates may run through a third protein. Some results given as binding are weak or reduced against the parent protein; the word gives no strength.
Target: cyclic GMP-AMP synthase (UniProt Q8N884)
Assay: co-IP; HEK293T cells transfected 48 h with HA-Aurora A and Flag-cGAS; lysis in 20 mM Tris-HCl pH 7.5, 150 mM NaCl, 1 mM EDTA, 1% Triton X-100; anti-Flag sepharose beads, 3 h at 4°C; Western blotting

Amino acid sequences for entries named in this document (tags omitted).
UniProt Q8N884: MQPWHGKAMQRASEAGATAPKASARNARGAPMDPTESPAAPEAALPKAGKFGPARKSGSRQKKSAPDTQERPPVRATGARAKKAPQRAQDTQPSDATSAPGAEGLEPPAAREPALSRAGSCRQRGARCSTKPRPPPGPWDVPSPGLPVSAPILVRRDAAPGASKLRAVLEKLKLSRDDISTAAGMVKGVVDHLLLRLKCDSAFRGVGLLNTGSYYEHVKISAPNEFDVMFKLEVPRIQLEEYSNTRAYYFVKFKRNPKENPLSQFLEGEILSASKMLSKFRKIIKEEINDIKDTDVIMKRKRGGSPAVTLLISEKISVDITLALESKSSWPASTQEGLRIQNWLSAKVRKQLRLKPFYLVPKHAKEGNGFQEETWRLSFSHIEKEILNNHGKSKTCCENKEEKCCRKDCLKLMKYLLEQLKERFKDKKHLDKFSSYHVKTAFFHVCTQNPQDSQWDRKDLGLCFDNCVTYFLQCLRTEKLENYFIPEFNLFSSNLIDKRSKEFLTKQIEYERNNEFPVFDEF

B1: Aurora A (enzyme, UniProt O14965 1-403)
chain: MDRSKENCISGPVKATAPVGGPKRVLVTQQFPCQNPLPVNSGQAQRVLCPSNSSQRIPLQAQKLVSSHKPVQNQKQKQLQATSVPHPVSRPLNNTQKSKQPLPSAPENNPEEELASKQKNEESKKRQWALEDFEIGRPLGKGKFGNVYLAREKQSKFILALKVLFKAQLEKAGVEHQLRREVEIQSHLRHPNILRLYGYFHDATRVYLILEYAPLGTVYRELQKLSKFDEQRTATYITELANALSYCHSKRVIHRDIKPENLLLGSAGELKIADFGWSVHAPSSRRTTLCGTLDYLPPEMIEGRMHDEKVDLWSLGVLCYEFLVGKPPFEANTYQETYKRISRVEFTFPDFVTEGARDLISRLLKHNPSQRPMLREVLEHPWITANSSKPSNCQNKESASKQS
With B1 the binding was “binds”.
